Test results published in patent US20100297135A1.
No constants are given. Whether binding was seen depends on the method and setting. A result given as binding can be weak or reduced; the word gives no strength.

Key:
[1] = target: wild type Macaque GM-CSF (Macaque); experiment: Western blot
[2] = target: wild type Macaque GM-CSF (Macaque); experiment: semi-quantitative ELISA
[3] = target: wild type Macaque GM-CSF (Macaque); experiment: Western blot; polypeptides separated by PAGE, nitrocellulose probed with 4K21 (2.68 ug/ml), goat anti-mouse IgG-HRP, chemiluminescence

Measured: binding

B1: murine anti-human GM-CSF monoclonal antibody 4K21-O11-E14 (antibody, V domains shown)
VH: EVQLVESGGGLVKSGGSLKLSCAASGFAFSAYDMSWVRQTPEKRLELVAYISSGGSSFYYPDTVKGRFTISRDNAKNTLYLQMSSLKSEDTAMYYCTRHLGFDYWGQGTTLTVSS
VL: DVVMTQTPLSLPVSLGDQASISCRSSQSLVNSNGNTYLHWFLQKPGQSPKLLIYKVSNRFSGVPDRFSGSGSGTDFTLKISRVEAEDLGVYFCSQSTHVPPTFGGGTKLEIK
binds: all assays above
